Test results from US20190315817A1.
These are yes or no findings as the source states them, for the method shown. Some binding calls cover weakened binding; strength is not graded here.

Experiments:
[1] = target: RFP-stalk-HC (hagfish); experiment: expression in HEK 293-F cells (self-association)
[2] = target: RFP-stalk-HC (hagfish); experiment: native-PAGE / SDS-PAGE Western blotting (self-association)

Binder: YFPSYIFLHLVHGLAAVPLVYLICHASQLL (peptide, hagfish, not shown: large carriers) [RFP-stalk-HC]
- binding [1]: binds
- binding [2]: binds
